# According to patent US6083920A, “Compositions for modulating intracellular inositol trisphosphate concentration” (priority 1996, dated 2000):
# Tested on: cultured neurons
# Assay: Lysosphingolipid content of cultured neurons by NBDZF fluorescence tagging
# Assay type: cell-based, chick
# Conditions: for lysosphingolipid content of agonist-stimulated neurons: 100 μM ibotenate for 1 hour, n=6; for lysosphingolipid content of resting, unstimulated neurons: n=9
# Excerpt: Agonist-binding to metabotropic receptors influences the levels of lysosphingolipid in neuronal membranes. However, there is no convenient methodology available for the measurement of lysosphingolipid content in cultured neurons. As a result, a sensitive method of fluorometric tracing has been devised and is described herein. The measurement of lysosphingolipid content in cultured neurons is based on the stable fluorescence-tagging procedure using 4-fluoro, 7-nitrobenzofuran (NBDZF) described by Nozowa et al J. Neurochem. 59:607-609, 1992). The procedure was applied to: resting neurons; neurons exposed to 100 μM metabotropic receptor agonist for 1 hour; resting neurons exogenously enriched in lysosphingolipids; and neurons exogenously enriched in lysosphingolipids and exposed to metabotropic receptor agonist for 1 hour. The neurons were scraped in batches of 107 (1 Petri dish, approximately 8 cm in diameter, is equivalent to 2 mg membrane protein) and subjected to anaylsis.
# Total lipids were removed from the neuron samples by repeated extraction with chloroforn:methanol (2:1, vol:vol). The lysosphingolipids were separated from total neuronal lipid in 90±5% recovery yield (n=10) by the stepped chromatographic procedure of Van Veldhoven et al. (Anal. Biochem. 183:177-189, 1989). The recovered lysosphingolipids were stably tagged with NBDZF by the rapid procedure of Nozowa et al. (supra). The fluorescence tagged neuronal lysosphingolipids were separated in parallel with reference standards NBDZF-Sph, NBDZF-Psy, and NBDZF-Lsm on high performance silica gel thin layer chromatography plates with acetonitrile:H2 O (10:0.5, vol:vol). The highly fluorescent, well separated bands were scraped from the plate. The fluorescence tagged lysosphingolipids are eluted from the scraped silica gel with methanol:1 N HCl (1:0.02, vol:vol). The fluorescence tagged lysosphingolipid eluates were quantitated against reference standards by fluorescence measurement in a Perkin-Elmer LS-5 Fluorescence Spectrometer.
# Sphingolipid content of neurons exposed to sphingosine, lysocerebroside, and lysosphingomyelin was examined as follows. A Petri dish containing approximately 107 neurons was incubated with 5 μCi [^3 H]myo-Ins in 3 ml DMEM overnight to prelabel the phosphoinositide InsP3 may contain. The neurons were washed with PBS and 3 ml of PBS containing 4.5 g/l glucose was added. Preparations of sphingosine, lysocerebroside, lysosphingomyelin (Sigma Chemical Co., St. Louis, Mo.) and combinations of each were prepared as the hydrochloride salt dissolved in PBS. The lysosphingolipids were added to the Petri dishes to produce a concentration ranging from 0-150 μM. […] Trypsinization removes non-specifically bound lysosphingolipids that may adhere to extracellular plasma membrane protein domain s. Non-specific adherence between cationic micelles of lysosphingolipids and the neuronal glycocatyx avoided by performing the experiments with lysosphingolipid concentrations below the critical micelle concentration. Neurons were analyzed for lysosphingolipid content as described above.
structure (smiles),measurement,value
"CCCCCCCCCCCCC/C=C/[C@@H](O)[C@@H](N)COP(=O)([O-])OCC[N+](C)(C)C [lysosphingomyelin, sphingosyl phosphoryicholine]",lysosphingolipid content of agonist-stimulated neurons,52±2 pmoles per mg protein
same,"lysosphingolipid content of resting, unstimulated neurons",5±0.2 pmoles per mg protein
"CCCCCCCCCCCCC/C=C/[C@@H](O)[C@@H](N)CO[C@@H]1O[C@H](CO)[C@H](O)[C@H](O)[C@H]1O [psychosine, lysocerebroside]",lysosphingolipid content of agonist-stimulated neurons,80±5 pmoles per mg protein
same,"lysosphingolipid content of resting, unstimulated neurons",50±10 pmoles per mg protein
CCCCCCCCCCCCC/C=C/[C@@H](O)[C@@H](N)CO [sphingosine],lysosphingolipid content of agonist-stimulated neurons,85±3 pmoles per mg protein
same,"lysosphingolipid content of resting, unstimulated neurons",113±13 pmoles per mg protein
